Data as given in patent US20240294637A1 (DENDROCYTE BIOTECH, published 2024).
Results are given in words; binding and its absence hold for the method and conditions named. Some entries that bind do so weakly or less than the wild type. For part of these data: Tags and fused reporters may be left off the sequences shown.

Columns and labels:
[1] = molecular target: T1, CD300f as naturally expressed on human myeloid cells (HEL, HL-60, THP-1, U937 cell lines; monocytes; AML blasts and LSCs; cord blood HSC) (human) (UniProt Q8TDQ1); test: flow cytometry on cord blood hematopoietic stem cells
T1 sequence (looked up): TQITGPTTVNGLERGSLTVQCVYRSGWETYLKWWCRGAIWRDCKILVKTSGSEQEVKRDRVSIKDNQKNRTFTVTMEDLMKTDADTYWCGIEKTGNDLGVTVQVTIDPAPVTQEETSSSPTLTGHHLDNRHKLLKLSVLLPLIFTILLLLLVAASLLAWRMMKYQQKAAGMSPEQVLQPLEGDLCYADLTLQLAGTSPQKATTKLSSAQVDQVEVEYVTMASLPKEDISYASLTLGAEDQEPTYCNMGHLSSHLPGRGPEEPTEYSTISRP

[2] = molecular target: T1, CD300f as naturally expressed on human myeloid cells (HEL, HL-60, THP-1, U937 cell lines; monocytes; AML blasts and LSCs; cord blood HSC) (human); test: flow cytometry on CD300f^+ monocyte populations of healthy PBMC
[3] = molecular target: T1, CD300f as naturally expressed on human myeloid cells (HEL, HL-60, THP-1, U937 cell lines; monocytes; AML blasts and LSCs; cord blood HSC) (human); test: flow cytometry geoMFI ratio on myeloid cell lines
[4] = molecular target: T2, CD300f-Ig fusion protein (recombinant CD300f-Fc protein, Sino Biologicals) (human) (UniProt Q8TDQ1); test: ELISA on captured CD300f-Ig fusion protein
T2 sequence (looked up): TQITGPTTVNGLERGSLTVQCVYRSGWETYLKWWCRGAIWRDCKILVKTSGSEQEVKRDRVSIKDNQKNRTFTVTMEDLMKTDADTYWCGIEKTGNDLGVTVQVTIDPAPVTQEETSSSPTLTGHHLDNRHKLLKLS

[5] = molecular target: T1, CD300f as naturally expressed on human myeloid cells (HEL, HL-60, THP-1, U937 cell lines; monocytes; AML blasts and LSCs; cord blood HSC) (human); test: flow cytometry on monocyte populations of healthy PBMC
[6] = molecular target: T3, CD300f Isoform 1 (Accession number NP_620587) on CHO transfectant cell surface (human) (UniProt Q8TDQ1); test: flow cytometry on CD300f isoform 1 CHO transfectants
T3 sequence (looked up): T1 sequence (looked up)

[7] = molecular target: T2, CD300f-Ig fusion protein (recombinant CD300f-Fc protein, Sino Biologicals) (human); test: discussion of the results; affinity was measured by Bio-Layer Interferometry on CD300f-Fc (FIG. 9)
[8] = molecular target: T1, CD300f as naturally expressed on human myeloid cells (HEL, HL-60, THP-1, U937 cell lines; monocytes; AML blasts and LSCs; cord blood HSC) (human); test: flow cytometry on five AML samples, blasts and CD34^+CD38^- LSCs
[9] = molecular target: T1, CD300f as naturally expressed on human myeloid cells (HEL, HL-60, THP-1, U937 cell lines; monocytes; AML blasts and LSCs; cord blood HSC) (human); test: flow cytometry on HEL, HL-60, THP-1 and U937 cell lines

Measured: binding

B1: Monoclonal antibody DCR-2 (antibody, V domains shown)
VH: MESGGGLVQPGGPLKLSCAASGFGFSGSWMSWVRQAPGKGLEWIGQINPDSSTINYTPSLKDKFIISRDNAKNTLYLQINKVRSEDTALYYCARRGFFEGYSAWFAYWGQGTLVTV
VL: ILMTQTPKFLLVSAGDRVTITCKASQSVSNDVAWYQQKPGQSPSLLIYYASNRNTGVPDRFTGSGYETDFTFTISTVQAEDLAVYFCQQDYTSPWTFGGGTKLEIKR
notes: also called mAb DCR-2
binds: [1] | [2] | [3] | [4] | [5] | [6] | [7] | [8] | [9]
